First the molecules themselves.
B1: 1P4A12 murine monoclonal anti-RON antibody (antibody, V domains shown)
VH: EVQLQQSGPELVKPGASMKISCKASGYSFTGYTMNWVKQSHGKKLEWIGLINPYNGGTIYNQKFKGKATLTVDKSSSTAYMELLSLTSEDSAVYYCARWLRRGGYAMDYWGQGASVTVSS
VL: DILLTQSPAILSVSPGERVSFSCRASQSIGTSIHWYQQRTNGSPRLLIKFASESISGIPSRFSGSGSGTDFTLSINSVESEDIADYYCQQSDSWPLTFGAGTKLEVK
B2: 1P5B10 murine monoclonal anti-RON antibody (antibody, V domains shown)
VH: B1 VH with K23R, S25A, Y27F, K44S, P53L, Y54N, I59S, Y60H, A114I
VL: B1 VL with S28N, F50Y, V106L
B3: 1P3B2 murine monoclonal anti-RON antibody (antibody, V domains shown)
VH: EVQLQQSGPELEKPGASVKISCKASGYSFTGYNMNWVKQSNGESLEWIGDIDPYYGGTRYNQKFKGKATLTVDKSSSTAYMQLKSLTSEDSAVYYCAREGRGFAYWGQGTLVTVSA
VL: DIQMTQSPASLSASVGETVTITCRASENIYSYLAWYQKKQGKSPQLLVYNAKTSVEGVPSRFSGSGSGIQFSLKINSLQPEDFGSYYCHCQHHYGTLPTFGGGTKLEIK
B4: 1P4A3 murine monoclonal anti-RON antibody (antibody, V domains shown)
VH: B3 VH with K19M, N41T, E43K, G56D, V72A, A97T
VL: DIQMTQSPASLSASVGETVTITCRASENIYSYLAWYQQKQGKSPQLLVYNAKTLAGGVPSRFSGSGSGTQFSLKINSLQPEDFGSYYCQHYYGTPLTFGAGTKLELK

Chains of the proteins cited; added tags and fusions are not shown. Lines headed by an entry give the natural chain unless they say otherwise; changes in a name come on top.
UniProt Q04912: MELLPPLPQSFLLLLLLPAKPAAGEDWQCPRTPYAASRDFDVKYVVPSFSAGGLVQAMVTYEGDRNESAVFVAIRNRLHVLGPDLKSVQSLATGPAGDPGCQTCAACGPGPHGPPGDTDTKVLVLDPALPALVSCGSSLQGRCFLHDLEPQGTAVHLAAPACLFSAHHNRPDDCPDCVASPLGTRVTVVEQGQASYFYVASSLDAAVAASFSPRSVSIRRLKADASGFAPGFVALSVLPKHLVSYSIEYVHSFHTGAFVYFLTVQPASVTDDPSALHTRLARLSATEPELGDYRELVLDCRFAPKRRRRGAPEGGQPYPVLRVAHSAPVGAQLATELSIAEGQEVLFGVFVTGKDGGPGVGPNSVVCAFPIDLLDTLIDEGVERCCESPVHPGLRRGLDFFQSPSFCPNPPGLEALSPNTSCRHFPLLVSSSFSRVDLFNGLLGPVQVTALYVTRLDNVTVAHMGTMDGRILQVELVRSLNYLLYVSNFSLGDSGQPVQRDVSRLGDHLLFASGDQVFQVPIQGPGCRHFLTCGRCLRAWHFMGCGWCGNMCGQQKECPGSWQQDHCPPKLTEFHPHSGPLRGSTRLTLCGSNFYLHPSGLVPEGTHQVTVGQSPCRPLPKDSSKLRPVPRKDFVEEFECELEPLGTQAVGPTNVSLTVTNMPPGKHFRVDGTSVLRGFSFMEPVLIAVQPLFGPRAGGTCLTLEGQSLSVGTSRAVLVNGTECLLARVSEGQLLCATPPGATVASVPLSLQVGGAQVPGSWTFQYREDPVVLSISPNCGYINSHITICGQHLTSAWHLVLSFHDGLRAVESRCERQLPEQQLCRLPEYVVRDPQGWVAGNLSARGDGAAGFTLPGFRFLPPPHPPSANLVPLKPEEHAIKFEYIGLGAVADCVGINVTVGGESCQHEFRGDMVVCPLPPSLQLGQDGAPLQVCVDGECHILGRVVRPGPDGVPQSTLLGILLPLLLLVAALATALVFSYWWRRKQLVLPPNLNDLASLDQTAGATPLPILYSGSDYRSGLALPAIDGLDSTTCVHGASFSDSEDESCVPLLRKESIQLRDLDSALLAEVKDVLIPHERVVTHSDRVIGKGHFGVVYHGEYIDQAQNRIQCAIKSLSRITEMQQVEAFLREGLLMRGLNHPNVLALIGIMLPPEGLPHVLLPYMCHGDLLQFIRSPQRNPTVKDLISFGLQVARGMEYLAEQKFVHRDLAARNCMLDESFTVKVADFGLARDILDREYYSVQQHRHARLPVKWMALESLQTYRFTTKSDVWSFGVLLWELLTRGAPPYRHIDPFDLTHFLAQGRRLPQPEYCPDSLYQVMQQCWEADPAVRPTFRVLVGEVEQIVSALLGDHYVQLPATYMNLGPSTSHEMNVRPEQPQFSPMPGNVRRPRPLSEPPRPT

Numbering of substitutions follows the chain as printed. These are yes or no findings as the source states them, for the method shown. Some entries that bind do so weakly or less than the wild type.

The first experiment deals with soluble cynomolgus (Macaca fascicularis) RON protein (cynomolgus (Macaca fascicularis)). As to the kind of experiment: ELISA on plate-coated soluble cyno RON. Background: In an ELISA, binding on a coated surface is turned into a signal by an enzyme label.
On to B1, for which the binding entry is given as “binds”.
Still for that read-out and setting: to B2 belongs “binds”.
Still for that read-out and setting: to B3 belongs “binds”; to B4, “binds”.

In a further experiment the target is soluble human RON protein (R&D Systems, catalog 1947) (human) (UniProt Q04912). Put plainly: ELISA on plate-coated soluble RON.
As for B1, the binding result was “binds”.
Same read-out and setting: the result for B2 reads “binds”.
On the same count and under the same terms, the result for B3 reads “binds”; that for B4, “binds”.

For a further experiment the target is unchanged. As to the kind of experiment: ELISA on plate-coated soluble human RON.
Turning to B1, the binding entry is “binds”.
Same read-out and setting: the result for B2 reads “binds”; that for B3, “binds”; that for B4, “binds”.

The values above are taken from patent US20090226442A1.
